Measurements from “University of Dundee, Small-Polar-MMV Screening Library” (2021), ChEMBL document CHEMBL3988442.

Mtb glucose medium: 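Growth of Mycobacterium tuberculosis over 3 days (7H9 medium with glucose and tyloxapol); the read-out is not stated. Tested at 50 µM. Higher reads as more growth inhibition (inferred: compounds with an IC50 in retests scored well above the rest). Size under these conditions: about 69,000 compounds, about 760 of them at 50% or above in at least one test.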
Mtb cholesterol medium: 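Whole-cell growth test on Mycobacterium tuberculosis, read after 4 days in a medium based on cholesterol and the lipid DPPC; the read-out is not stated. Tested at 50 µM. Higher reads as more growth inhibition (inferred: compounds with an IC50 in retests scored well above the rest). About 69,000 compounds were tested under these conditions; 0.54% (about 370) showed 50% or more at least once.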

Results are given as percent effect. How 0% and 100% were set is not recorded. Most values in the screen are low, and negative values occur. This is an unselected part of the compounds tested. Two or more numbers in one place are separate tests of the same structure; such repeats can differ widely.

structure | Mtb glucose medium | Mtb cholesterol medium
Cc1noc(C)c1CN1CCC2(CC1)NC(=O)CC2c1ccncc1 (stereo unspecified) | 3.746 | -5.994
CCc1ncc2c(n1)CN(CC(=O)N1CCc3sccc3C1)CC2 | -8.146 | 5.277 & 5.196
Cc1ncccc1C(=O)Nc1ccc2ccn(CCN(C)C)c2c1 | 5.855 | -16.12
CNC(=O)c1cccc(NC(=O)Cn2nc(-c3cccs3)oc2=O)c1 | 0.9459 | -4.96
COc1c(C)cnc(CN(C)C(=O)c2ccccc2O)c1C | 26.07 | 18.35
COc1ccccc1OCCC(=O)N1CCCCC1c1nccs1 (stereo unspecified) | 12.12 | -15.21
CN(C)C(=O)N1CCCC(C(=O)N(C)CCCc2cnn(C)c2)C1 (stereo unspecified) | -17.08 | -23.09
Cc1cc(N2CCC3(CCCN(CCO)C3=O)C2)nc(C)c1C#N (stereo unspecified) | 24.58 | -12.59
CCc1nc(Nc2ccc(C(=O)NC)cc2)c2c(n1)c(C)nn2CC | 39.67 | -4.92
CCn1c(CN2CCOC(Cn3cncn3)C2)nc2cc(F)ccc21 (stereo unspecified) | -6.588 & -17.28 | 1.355
CC(C)c1nnc(NC(=O)NC2CCOc3ccccc32)s1 (stereo unspecified) | 2.125 | -7.856 & -17.06
CCN(C)c1ncnc2c1CCN(c1ccc(C)nn1)CC2 | 4.354 | 7.578
Cc1noc(C)c1CCc1nc(C2CCOC2)no1 (stereo unspecified) | -3.686 | -8.397
CC(C(=O)Nc1cccc(Cl)c1SC(F)F)S(C)(=O)=O (stereo unspecified) | 37.52 | 8.198
O=C(Nc1nc2c(s1)CN(S(=O)(=O)C1CC1)CC2)c1ccsc1 | 5.412 | -5.136
Cc1cccc(NC(=O)N2CCC3(CC(=O)N(c4ccsc4)C3)C2)c1 (stereo unspecified) | 5.525 | 3.931 & 1.697
CCC(CO)n1cnc2scc(C)c2c1=O (stereo unspecified) | 0.9503 | -7.558
Cc1cc(CN(C)C(=O)C2CC(c3cccc(F)c3)=NO2)no1 (stereo unspecified) | 11.92 | -13.2
Cc1cc2nc(C(C)C)cc(N(C)CC3CCCN3C)n2n1 (stereo unspecified) | 31.8 & 34.08 | 39.43
COCCN1CCC(CNC(=O)C2(C#N)CCCC2)CC1 | 1.053 | -11.47
Cc1nccn1CC1CCCN1S(=O)(=O)Cc1ccccc1F (stereo unspecified) | 8.976 | -5.753
CCC(O)Cn1cc(C2=CCN(Cc3cc(O)nc(C)n3)CC2)cn1 (stereo unspecified) | -32.02 | -31.73
Cc1ccc2[nH]nc(C(=O)NCC3CCN(Cc4c[nH]cn4)C3)c2c1 (stereo unspecified) | 42.18 | 11
CCCN1CCC(c2nc3ccc(-c4ccccc4)cn3n2)CC1.O=C(O)C(F)(F)F | 28.77 | 3.558
Cc1nc(Nc2cnccn2)cc(C2CCCN2C2CCOCC2)n1 (stereo unspecified) | -8.436 | -20.83
Cc1nc(CSCCC(=O)Nc2cccc(N3CCNC3=O)c2)cs1 | -0.6651 & 71.79 | -27.14
CS(=O)(=O)NCC1CCCN(C(=O)c2cccc(F)c2)C1 (stereo unspecified) | -19.73 | -40.96
COCCOc1ccc(-c2noc([C@@H]3CCCN3)n2)cn1 | -8.549 & -16.69 | 3.363
COc1ccc(C(=O)N2CC[C@](C)(O)[C@H](C)C2)cc1N1CCOCC1 | -0.08919 | 13.86
CCO[C@H]1C[C@@H](O)C12CCN(C1Cc3ccccc3C1)CC2 | 0.8653 & -21.64 | -2.856
Cc1ccc(CN2CCC3(CC(C(=O)NC4CCC4)=NO3)C2)o1 (stereo unspecified) | -16.55 | -11.71
O=C(Cn1nc(Br)nc1Br)N1CCCCC1 | 3.562 & 15.32 | -4.656
COc1ccccc1CC1CCN(C(=O)CCc2ccccn2)CC1 | 28.78 | 36.33
Cc1cc(C)c2cc(C(=O)N3CCN(Cc4ccco4)CC3)[nH]c2c1 | 5.716 | -1.644
CCOCC(=O)NC1(c2nc(C)cs2)CCCC1 | 2.714 | -2.873
COc1ccc(CN(C(=O)C(C)SC)c2cnn(C)c2)c(OC)c1 (stereo unspecified) | -6.315 & -12.93 | -16.25
Cl.c1cnc2c(c1)cc([C@H]1CCCO1)n2CCN1CCCCC1 | -44.99 | -15.2
O=C(O)C(F)(F)F.[H][C@@]12COC[C@@H](C(=O)N3CCCO3)[C@]1([H])CN(C1CCOCC1)C2 | -6.14 & -44.41 | -27.25
CN(C)Cc1cc(=O)n2c(n1)CN(Cc1ccco1)CCC2 | -6.158 & -14.54 | 9.142
Cc1ccc(N(C)C2CCN(C(=O)CCc3ccco3)CC2)nn1 | -6.093 | -0.4018
COCC(=O)Nc1cnc(N2CCN(c3ccccc3)CC2)nc1 | -4.792 | -5.283
Cc1nc(C2CCN(C(=O)c3ccc(=O)n(C)c3)CC2)c2sccn12 | 4.46 | 8.911
O=C(O)C(F)(F)F.[H][C@@]12CN(C(=O)c3ccoc3)C[C@]1([H])OCCN2C | -11.84 | -9.396
CCC(CC)CN(C)Cc1nc(-c2ccccc2NS(C)(=O)=O)oc1C | 16.31 | 16.11
CNc1ncccc1CN1CCN(C(C)=O)CC(C(N)=O)C1 (stereo unspecified) | -0.7276 | -4.14
COCCN1CCN(Cc2ccoc2)Cc2cccnc21 | 12.63 | -7.676
CCCc1c(C(=O)NC2CCCC2)nnn1-c1ccc(OC)cc1 | 5.2 | -20.48
Cc1cc(C)c2c(NCCC34CCCN3CCC4)ncnc2n1 | -30.52 | 11.44